Assay results published in article PMC7860981, “Mitochondrial Enzymes of the Urea Cycle Cluster at the Inner Mitochondrial Membrane” (Frontiers in Physiology, 2020).
These are yes or no findings as the source states them, for the method shown. In cells and extracts the contact can be indirect. Some binding calls cover weakened binding; strength is not graded here.

Target: T1, ornithine transcarbamylase (OTC), endogenous in mouse liver mitochondria (mouse (endogenous in mouse liver mitochondria)) (UniProt P11725)
T1 sequence: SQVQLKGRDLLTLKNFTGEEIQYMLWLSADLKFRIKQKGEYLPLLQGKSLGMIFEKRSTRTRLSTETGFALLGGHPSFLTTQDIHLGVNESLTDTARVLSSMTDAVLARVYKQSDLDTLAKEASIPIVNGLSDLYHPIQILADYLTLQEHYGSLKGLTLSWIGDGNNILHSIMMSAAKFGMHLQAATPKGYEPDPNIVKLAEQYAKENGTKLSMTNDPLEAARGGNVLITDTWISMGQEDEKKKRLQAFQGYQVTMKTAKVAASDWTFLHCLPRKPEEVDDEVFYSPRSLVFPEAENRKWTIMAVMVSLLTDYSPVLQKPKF
Test: co-IP; mouse liver mitochondrial lysate (PBS, 2% CHAPS; 1 mg/ml protein for anti-OTC and anti-CPS1, 5 mg/ml for anti-NAGS) with magnetic beads cross-linked to antibodies against NAGS, CPS1 or OTC, 20°C for 10 min, five washes with PBS with 0.05% Triton X-100; immunoblot for NAGS and CPS1; non-specific IgG as negative control

binding: binds
B1: carbamylphosphate synthetase 1 (CPS1), endogenous in mouse liver mitochondria (enzyme, UniProt Q8C196 39-1500)
chain: LSVKAKTAHIVLEDGTKMKGYSFGHPSSVAGEVVFNTGLGGYPEALTDPAYKGQILTMANPIIGNGGAPDTTARDELGLNKYMESDGIKVAGLLVLNYSNDYNHWLATKSLGQWLQEEKVPAIYGVDTRMLTKIIRDKGTMLGKIEFEGQSVDFVDPNKQNLIAEVSTKDVKVFGKGNPTKVVAVDCGIKNNVIRLLVKRGAEVHLVPWNHDFTQMEYDGLLIAGGPGNPALAQPLIQNVKKILESDRKEPLFGISTGNIITGLAAGAKSYKMSMANRGQNQPVLNITNRQAFITAQNHGYALDNTLPAGWKPLFVNVNDQTNEGIMHESKPFFAVQFHPEVSPGPTDTEYLFDSFFSLIKKGKGTTITSVLPKPALVASRVEVSKVLILGSGGLSIGQAGEFDYSGSQAVKAMKEENVKTVLMNPNIASVQTNEVGLKQADAVYFLPITPQFVTEVIKAERPDGLILGMGGQTALNCGVELFKRGVLKEYGVKVLGTSVESIMATEDRQLFSDKLNEINEKIAPSFAVESMEDALKAADTIGYPVMIRSAYALGGLGSGICPNKETLIDLGTKAFAMTNQILVERSVTGWKEIEYEVVRDADDNCVTVCNMENVDAMGVHTGDSVVVAPAQTLSNAEFQMLRRTSVNVVRHLGIVGECNIQFALHPTSMEYCIIEVNARLSRSSALASKATGYPLAFIAAKIALGIPLPEIKNVVSGKTSACFEPSLDYMVTKIPRWDLDRFHGTSSRIGSSMKSVGEVMAIGRTFEESFQKALRMCHPSVDGFTPRLPMNKEWPANLDLKKELSEPSSTRIYAIAKALENNMSLDEIVRLTSIDKWFLYKMRDILNMDKTLKGLNSDSVTEETLRKAKEIGFSDKQISKCLGLTEAQTRELRLKKNIHPWVKQIDTLAAEYPSVTNYLYVTYNGQEHDIKFDEHGIMVLGCGPYHIGSSVEFDWCAVSSIRTLRQLGKKTVVVNCNPETVSTDFDECDKLYFEELSLERILDIYHQEACNGCIISVGGQIPNNLAVPLYKNGVKIMGTSPLQIDRAEDRSIFSAVLDELKVAQAPWKAVNTLNEALEFANSVGYPCLLRPSYVLSGSAMNVVFSEDEMKRFLEEATRVSQEHPVVLTKFVEGAREVEMDAVGKEGRVISHAISEHVEDAGVHSGDATLMLPTQTISQGAIEKVKDATRKIAKAFAISGPFNVQFLVKGNDVLVIECNLRASRSFPFVSKTLGVDFIDVATKVMIGESIDEKRLPTLEQPIIPSDYVAIKAPMFSWPRLRDADPILRCEMASTGEVACFGEGIHTAFLKAMLSTGFKIPQKGILIGIQQSFRPRFLGVAEQLHNEGFKLFATEATSDWLNANNVPATPVAWPSQEGQNPSLSSIRKLIRDGSIDLVINLPNNNTKFVHDNYVIRRTAVDSGIALLTNFQVTKLFAEAVQKSRTVDSKSLFHYRQYSAGKAA
